Results on 70 variants are retold here after the supplement of paper PMC7125110.

± gives the standard error. Many entries were measured with a wide error.

B1: glmS ribozyme (parent)
chain: AUAAAAGCGCCAGAACUACAGAAAUGUAGUUGACGAGGAGGAGGUUUAUCGAAUUUUCGGCGGAUGCCUCCAAA

In one data set the parent is B1. The data set can be described thus: self-cleavage kobs at 640 uM GlcN6P; higher = faster cleavage; RNA array. The conditions noted are these: with glucosamine-6-phosphate. In outline:
(§1)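 Glucosamine-6-phosphate (40 μM to 10 mM) in HEPES/KCl/Mg(OAc)2 buffer was flowed over sequenced MiSeq chips, and tiles were imaged over ~14 h. Barcoded ribozyme variants there had been transcribed in situ by E. coli RNA polymerase and were tracked through a hybridised Cy3 probe at 37 °C. One- or two-exponential decay fits to per-tile medians, normalised to baseline and to non-cleaving reference variants, gave kobs. kcat and KM came from weighted Michaelis–Menten fits across concentrations.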
As to C10A C70U C71A, the “self-cleavage kobs at 640 uM GlcN6P” value is 3.45e-05 ± 2.8e-05 s⁻¹.
Still for that read-out and setting: as for C10G G32U U54G C68A, the figure is 4.34e-05 ± 3.7e-05 s⁻¹; as for G13A C68G, 1.92e-05 ± 1.4e-05 s⁻¹.
The same measure, in the same setting: then A15U U31A C70A, with 2.67e-05 ± 2.6e-05 s⁻¹; and C8U A15G C16U C68G, with 6.08e-05 ± 3.8e-05 s⁻¹; and A14U C58U, with 1.59e-05 ± 1.2e-05 s⁻¹.
Turning to U31G G41A U54C, the “self-cleavage kobs at 640 uM GlcN6P” value was determined as 3e-05 ± 2.2e-05 s⁻¹.
A12U G44U C70U: the “self-cleavage kobs at 640 uM GlcN6P” value is 3.82e-05 ± 2.2e-05 s⁻¹.
As to U55C A64U, the “self-cleavage kobs at 640 uM GlcN6P” value was 1.2e-05 ± 1e-05 s⁻¹.
Still for that read-out and setting: as for G13U A14G C61U C70G, the figure is 2.23e-05 ± 2.2e-05 s⁻¹.
Still for that read-out and setting: then G7U U46A C50G G60A U65G U69A, with 3.82e-05 ± 2.4e-05 s⁻¹.
On the same count and under the same terms, then G29C G32U C67A, with 4.89e-05 ± 2.5e-05 s⁻¹; and A12C G37U C50G U54G, with 3.49e-05 ± 2.4e-05 s⁻¹; and G13C A15U A52U C67A C71G, with 5.97e-05 ± 3.2e-05 s⁻¹.
As to C11G A14U A33U A52U C70U C71U, the “self-cleavage kobs at 640 uM GlcN6P” value amounted to 2.9e-05 ± 2.3e-05 s⁻¹.
The same measure, in the same setting: then C16U U46C C58G C61G, with 0.0003 ± 0.00015 s⁻¹; and G29U G38U G66U C68A U69G, with 0.000256 ± 0.00014 s⁻¹.
For A6G A14C, the “self-cleavage kobs at 640 uM GlcN6P” value was found to be 1.82e-05 ± 1e-05 s⁻¹.
Same read-out and setting: then G29A G38C A53U C68G, with 3.96e-05 ± 3.2e-05 s⁻¹; and A12C A14C C70U, with 1.86e-05 ± 1.4e-05 s⁻¹; and G13A U31C A36U C58A G60C G62A C67G, with 0.000141 ± 7.2e-05 s⁻¹.
The same measure, in the same setting: as for A15U A36G U69C C70A, the figure is 2.37e-05 ± 1.8e-05 s⁻¹.
Regarding G29U G32C, the “self-cleavage kobs at 640 uM GlcN6P” value came out at 2.72e-05 ± 1.4e-05 s⁻¹.
The same measure, in the same setting: then G66C C71A, with 5.3e-05 ± 3.1e-05 s⁻¹; and A14U C68A, with 2.01e-05 ± 1.5e-05 s⁻¹.
Take A15C C58U: the “self-cleavage kobs at 640 uM GlcN6P” value turned out to be 2.47e-05 ± 1.4e-05 s⁻¹.
On the same count and under the same terms, then U31A A52G C68A, with 2.17e-05 ± 2.2e-05 s⁻¹.

The next data set covers variants of B1. Nature of the data set: self-cleavage kobs at 160 uM GlcN6P; higher = faster cleavage; RNA array. The conditions noted are these: with glucosamine-6-phosphate. The method, boiled down:
as §1
Take C10A C70U C71A: the “self-cleavage kobs at 160 uM GlcN6P” value turned out to be 3.37e-05 ± 2.3e-05 s⁻¹.
The same measure, in the same setting: as for A15U U31A C70A, the figure is 3.08e-05 ± 2.2e-05 s⁻¹.
Turning to C8U A15G C16U C68G, the “self-cleavage kobs at 160 uM GlcN6P” value stood at 4.43e-05 ± 2.8e-05 s⁻¹.
Still for that read-out and setting: as for A15U U31G U47A, the figure is 1.6e-05 ± 1.3e-05 s⁻¹.
Same read-out and setting: then A14U C58U, with 2.45e-05 ± 2e-05 s⁻¹; and G66A C68A, with 2.08e-05 ± 1.5e-05 s⁻¹.
As to A14G G29U U47G C70G, the “self-cleavage kobs at 160 uM GlcN6P” value worked out at 5.77e-05 ± 3.1e-05 s⁻¹.
The same measure, in the same setting: then U55C C71A, with 2.08e-05 ± 1.4e-05 s⁻¹.
Still for that read-out and setting: then G66C C71A, with 2.43e-05 ± 1.3e-05 s⁻¹.

Another data set covers variants of B1. Nature of the data set: self-cleavage kobs at 2500 uM GlcN6P; higher = faster cleavage; RNA array. The conditions noted are these: with glucosamine-6-phosphate. The method, boiled down: as §1
Consider C10A C70U C71A, for which the “self-cleavage kobs at 2500 uM GlcN6P” value was 2.52e-05 ± 1.9e-05 s⁻¹.
Still for that read-out and setting: as for C10G G32U U54G C68A, the figure is 6.01e-05 ± 3.5e-05 s⁻¹; as for G13A C68G, 2.34e-05 ± 1.8e-05 s⁻¹; as for C8U A15G C16U C68G, 3.71e-05 ± 2.2e-05 s⁻¹.
On the same count and under the same terms, as for A48G C50U A52U C70G, the figure is 2.01e-05 ± 1.9e-05 s⁻¹; as for G13C C50G, 3.87e-05 ± 3e-05 s⁻¹; as for C10G A14G U65A C67G, 3.4e-05 ± 2.4e-05 s⁻¹.

The next data set covers variants of B1. Nature of the data set: self-cleavage kobs at 40 uM GlcN6P; higher = faster cleavage; RNA array. The following applies: with glucosamine-6-phosphate. In outline:
as §1
As for C10A C68G, the “self-cleavage kobs at 40 uM GlcN6P” value turned out to be 1.98e-05 ± 1.8e-05 s⁻¹.
The same measure, in the same setting: then A14C G32A U69G, with 5.06e-05 ± 3e-05 s⁻¹.
Consider U31G U65A, for which the “self-cleavage kobs at 40 uM GlcN6P” value stood at 2.26e-05 ± 1.5e-05 s⁻¹.
On the same count and under the same terms, then G13C C58G C61G, with 4.19e-05 ± 2.4e-05 s⁻¹.
On the same count and under the same terms, then C34A U47G A52U C70A, with 3.27e-05 ± 2.8e-05 s⁻¹; and U31A C68U, with 1.7e-05 ± 9.3e-06 s⁻¹.
For A15U U31G U47A, the “self-cleavage kobs at 40 uM GlcN6P” value came to 2.17e-05 ± 2e-05 s⁻¹.
Turning to U31C G44U C67G, the “self-cleavage kobs at 40 uM GlcN6P” value is 2.34e-05 ± 1.9e-05 s⁻¹.
Same read-out and setting: then A48G C50U A52U C70G, with 2.76e-05 ± 2.3e-05 s⁻¹.
On to A14U G51A C58U C61G, for which the “self-cleavage kobs at 40 uM GlcN6P” value came out at 2.55e-05 ± 2.1e-05 s⁻¹.
Take A15G C50G U65C: the “self-cleavage kobs at 40 uM GlcN6P” value amounted to 2.61e-05 ± 2.3e-05 s⁻¹.
The same measure, in the same setting: then G66A C68A, with 2.8e-05 ± 2.5e-05 s⁻¹.
Consider A14G G29U U47G C70G, for which the “self-cleavage kobs at 40 uM GlcN6P” value was 3.26e-05 ± 2.4e-05 s⁻¹.
On the same count and under the same terms, then G40A A53G C70A, with 2.25e-05 ± 1.9e-05 s⁻¹.
With G41A U47G, the “self-cleavage kobs at 40 uM GlcN6P” value was 1.44e-05 ± 1.4e-05 s⁻¹.
On the same count and under the same terms, as for A14U A53U C68U, the figure is 2.88e-05 ± 1.9e-05 s⁻¹; as for C16G C71G, 1.86e-05 ± 1.8e-05 s⁻¹.
In the case of U30C U31G C70G, the “self-cleavage kobs at 40 uM GlcN6P” value was 3.3e-05 ± 2.8e-05 s⁻¹.
Still for that read-out and setting: as for C10U C11U C50G G59U, the figure is 4.53e-05 ± 3.3e-05 s⁻¹; as for G13C C50G, 2.9e-05 ± 2.3e-05 s⁻¹; as for A12G C67G C68A, 2.53e-05 ± 1.6e-05 s⁻¹.
On the same count and under the same terms, then U47G A52G, with 1.75e-05 ± 1.3e-05 s⁻¹; and C50U U56G C70G, with 3.76e-05 ± 2.2e-05 s⁻¹; and U47A A53G U55A G66C, with 2.45e-05 ± 2.2e-05 s⁻¹.
G41U U46G: the “self-cleavage kobs at 40 uM GlcN6P” value is 4.44e-05 ± 2.3e-05 s⁻¹.
Consider U30C C70A, for which the “self-cleavage kobs at 40 uM GlcN6P” value is 3.57e-05 ± 2.1e-05 s⁻¹.
Regarding C34G U49G C67U U69G C71A, the “self-cleavage kobs at 40 uM GlcN6P” value was 2e-05 ± 2e-05 s⁻¹.
Still for that read-out and setting: as for C10G A14G U65A C67G, the figure is 3.06e-05 ± 1.8e-05 s⁻¹.
Still for that read-out and setting: then C58A C70U, with 2.42e-05 ± 1.4e-05 s⁻¹; and C10G G60C C67A, with 2.87e-05 ± 2.2e-05 s⁻¹; and G35U U65G C67G, with 3.69e-05 ± 2.7e-05 s⁻¹.
Still for that read-out and setting: as for C16U A39G G40U, the figure is 2.16e-05 ± 1.4e-05 s⁻¹; as for A39U G41U, 2e-05 ± 1.1e-05 s⁻¹; as for C16G U47G, 2.16e-05 ± 1.4e-05 s⁻¹.

Variants of B1 are the subject of a further data set. Nature of the data set: self-cleavage kobs at 10000 uM GlcN6P; higher = faster cleavage; RNA array. The conditions noted are these: with glucosamine-6-phosphate. In outline:
as §1
Regarding C10A C68G, the “self-cleavage kobs at 10000 uM GlcN6P” value amounted to 1.72e-05 ± 1.3e-05 s⁻¹.
The same measure, in the same setting: as for C8U A15G C16U C68G, the figure is 3.1e-05 ± 2e-05 s⁻¹; as for A15G C50G U65C, 2.78e-05 ± 1.8e-05 s⁻¹; as for G7U U46A C50G G60A U65G U69A, 0.000779 ± 0.00045 s⁻¹.
In the case of G59A G66A, the “self-cleavage kobs at 10000 uM GlcN6P” value was 1.94e-05 ± 1e-05 s⁻¹.
Consider G13A U31C A36U C58A G60C G62A C67G, for which the “self-cleavage kobs at 10000 uM GlcN6P” value came out at 3.34e-05 ± 1.7e-05 s⁻¹.
For A15U A36G U69C C70A, the “self-cleavage kobs at 10000 uM GlcN6P” value stood at 2.03e-05 ± 1.9e-05 s⁻¹.
Regarding G35U U65G C67G, the “self-cleavage kobs at 10000 uM GlcN6P” value came to 4.28e-05 ± 2.2e-05 s⁻¹.

Variants of B1 are the subject of the next data set. Nature of the data set: KM; higher = weaker cofactor use; RNA array. The following applies: with glucosamine-6-phosphate. In outline:
as §1
Usually KM stands for the substrate concentration at which the rate is half of its maximum. As for C67G C70A, the KM amounted to 316 ± 170 µM.
Same read-out and setting: then G62U U65A, with 29.5 ± 26 µM.
The same measure, in the same setting: then G59U C61G, with 57.7 ± 54 µM; and U54G C68U, with 126 ± 96 µM; and U55C C58A, with 2580 ± 1500 µM.
As for U55C A64U, the KM worked out at 1210 ± 750 µM.
Still for that read-out and setting: as for G66A C68A, the figure is 917 ± 610 µM; as for A64U C71U, 4600 ± 4000 µM; as for U55C C71A, 3820 ± 600 µM.
As for G59A G66A, the KM was 118000 ± 9900 µM.
The same measure, in the same setting: then C58A C70U, with 718 ± 270 µM; and G66C C71A, with 733 ± 370 µM; and U55A A64G, with 1490 ± 810 µM.
